For the assay, the target named is Recombinant CD127 Fc Chimera (10975-H03H, Sino Biological) (human) (UniProt P16871). Briefly: ELISA, coated human CD127Fc, revealed with an anti-human kappa antibody. Background: In an ELISA, binding on a coated surface is turned into a signal by an enzyme label.

The chains behind the UniProt entries cited, without tags or fusion partners. Where a name states a change or a piece, a line headed by the entry shows the natural chain unless it says otherwise.
UniProt P16871: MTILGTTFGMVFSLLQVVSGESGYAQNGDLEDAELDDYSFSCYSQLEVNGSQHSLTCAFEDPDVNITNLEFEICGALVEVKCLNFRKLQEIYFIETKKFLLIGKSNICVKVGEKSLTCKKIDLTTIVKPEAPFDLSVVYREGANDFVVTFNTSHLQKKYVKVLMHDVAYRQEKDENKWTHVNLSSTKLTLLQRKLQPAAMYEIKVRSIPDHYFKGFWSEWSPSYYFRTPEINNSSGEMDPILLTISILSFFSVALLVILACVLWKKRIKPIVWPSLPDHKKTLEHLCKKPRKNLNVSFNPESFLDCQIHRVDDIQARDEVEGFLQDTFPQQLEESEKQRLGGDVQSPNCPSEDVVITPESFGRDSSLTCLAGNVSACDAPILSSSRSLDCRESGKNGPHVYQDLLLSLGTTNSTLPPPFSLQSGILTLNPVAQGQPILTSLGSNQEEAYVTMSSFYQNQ

No constants are given. Whether binding was seen depends on the method and setting. Some binding calls cover weakened binding; strength is not graded here.

B1: N13B2-h1 (humanized N13B2) (antibody, V domains shown)
VH: QVQLVESGGGLVKPGGSLRLSCAVSGFTLSDYYMAWVRQAPGKGLEWVATISASGLRTYYPDSVKGRFTISRDDAKNSLYLQMNSLRAEDTAVYYCARPMSAHYGFNYFDYWGQGTLVTVSS
VL: EIVMTQSPATLSVSPGERATLSCRTSEDIYNGLAWYQQKPGQAPRLLVYSANSLHIGIPARFSGSGSGTEYTLTISSLQSEDFAVYFCQQYYDYPLAFGGGTKVEIK
Turning to B1, the binding entry is recorded as “binds”.

B2: N13B2-h2 (humanized N13B2) (antibody, V domains shown)
VH: QVQLVESGGGLVKPGGSLRLSCAVSGFTLSDYYMAWIRQAPGKGLEWVSTISASGLRTYYPDSVKGRFTISRDNAKNSLYLQMNSLRAEDTAVYYCARPMSAHYGFNYFDYWGQGTLVTVSS
VL: EIVMTQSPATLSVSPGERATLSCRTSEDIYNGLAWYQQKPGQAPRLLIYSANSLHIGIPARFSGSGSGTEFTLTISSLQSEDFAVYYCQQYYDYPLAFGGGTKVEIK
Consider B2, for which the binding entry is “binds”.

For the origin of these results see patent US20170129959A1.
